# Assay results: PubChem BioAssay AID588497 (NMMLSC, 2011)
# In all, about 360,000 compounds went through this assay and about 780 (0.22%) were called active. The inconclusive results got no clear call from the source; some entries with a clear call stand among them for comparison. No stated cut-off is given here; in the data, active means inhibition above about 35% (passing the limit was not always enough); inconclusive means no clear call, values can overlap the other calls.
# Tested on: Botulinum neurotoxin type F light chain protease (Clostridium botulinum)
# Experiment: BoNT/F light chain protease inhibitors, primary screen, biochemical, flow cytometry, MLPCN library (AID 588497); further: plate controls were buffer without enzyme for full effect and enzyme alone for no effect
# Conditions: Multiplex microsphere protease cleavage assay, at 10 µM, active compounds read high
row,SMILES,inhibition
1,O=C(Nc1nnc(C2CC2)s1)c1ccncc1,inconclusive: -11%
3,CCOc1cc(C(=O)OCC(=O)c2c[nH]c3ccccc23)ccc1OCC(=O)N1CCOCC1,inconclusive: -22.2%
4,CCCCn1c(C23CC4CC(CC(C4)C2)C3)n[nH]c1=S,inconclusive: 6.3%
5,Cn1c(=O)n(CC(=O)O)c(=O)c2c1nc1n2CCS1,inconclusive: -34.1%
6,CC(=O)N(Cc1nc2sc(C)c(C)c2c(=O)[nH]1)C1CCCC1,inactive: -1.2%
7,CC(=O)NCCc1nc2cc(NC(=O)c3ccccc3C)ccc2n1C,inconclusive: -27.9%
8,O=P(Cc1cccc2ccccc12)(c1ccccc1)c1ccccc1,inactive: -0.1%
9,CC(C)Sc1sc(C(=O)O)c(-c2ccc(Cl)cc2)c1C#N,inconclusive: 1.8%
10,CC1CCCN(S(=O)(=O)c2ccc(NC(=O)CCN3C(=O)c4ccccc4C3=O)cc2)C1 (stereo not given),inconclusive: 39.5%
11,COc1ccc(-c2cc(C(=O)N3CCN(c4ncccn4)CC3)c3ccccc3n2)c(OC)c1,inactive: -0.1%
12,Fc1ccc(CNCCC(Cc2ccccc2)c2ccco2)cc1 (stereo not given),inconclusive: -77.5%
13,Cc1nn(-c2cccc(C(F)(F)F)c2)c(=O)c2noc(C)c12,inconclusive: -40.7%
14,Cc1ccc(C(=O)NC(=S)NNC(=O)c2ccccc2O)cc1,inconclusive: -3.9%
15,CN(C)S(=O)(=O)n1cc(/C=C(\NC(=O)c2ccccc2F)C(=O)N2CCCCC2)c2ccccc21,inactive: -3.3%
16,O=C1C(=Nc2cccc(Cl)c2)CC(c2ccc(Cl)cc2)N1c1cccc(Cl)c1 (stereo not given),inconclusive: 40.1%
17,COc1ccc(-c2ccc3c(N)c(C(=O)NC(C)C)sc3n2)cc1OC,inconclusive: 23.5%
18,Cc1ccc(-c2csc3ncn(CC(=O)OC(C)C)c(=O)c23)cc1,inconclusive: -7%
19,COc1cccc(N/C(=N/C(=S)Nc2ccc(C)cc2C)Nc2nc(C)cc(C)n2)c1,inconclusive: -104%
20,CCCOc1ccc(C(CC(=O)O)NC(=O)Cc2ccccc2)cc1 (stereo not given),inconclusive: 7%
21,O=Cc1ccc(OCCN2CCCC2=O)cc1,inconclusive: 15.3%
22,Cc1ccc(C(=O)COC(=O)C2CCC2)cc1,inconclusive: -21.5%
23,O=C(Nc1sc2c(c1C(=O)O)CCCC2)c1ccccc1Cl,inconclusive: 7.7%
24,O=C(COc1ccccc1)N=C1SC2CS(=O)(=O)CC2N1Cc1ccccc1 (stereo not given),inactive: -1%
25,O=C1C2CCCCN2C(=O)N1CCCN1CCN(c2ccc(F)cc2)CC1 (stereo not given),inconclusive: -38.2%

# Three compounds from above, sorted by SMILES length, low to high:
row,SMILES,inhibition
14,Cc1ccc(C(=O)NC(=S)NNC(=O)c2ccccc2O)cc1,inconclusive: -3.9%
3,CCOc1cc(C(=O)OCC(=O)c2c[nH]c3ccccc23)ccc1OCC(=O)N1CCOCC1,inconclusive: -22.2%
10,CC1CCCN(S(=O)(=O)c2ccc(NC(=O)CCN3C(=O)c4ccccc4C3=O)cc2)C1 (stereo not given),inconclusive: 39.5%
